The list shows a part of the results.
Experiments:
Assay in all cases: log2 fold change, soluble protein after heating vs DMSO (PISA); higher = thermal stabilisation; K562 lysate, 10 uM; active = over 0.2 and 3.5 SD of the protein, either way, in both replicates (recomputed)
[1] = compound: Cc1cn(-c2cc(NC(=O)c3ccc(C)c(Nc4nccc(-c5cccnc5)n4)c3)cc(C(F)(F)F)c2)cn1 [nilotinib]
Method in brief: (§1)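 Following dounce homogenisation of K562 pellets in PBS pH 7.4 with 1 mM MgCl2, crude extract at 1 mg/mL protein was incubated for 30 min with 10 μM compound. Aliquots were then heated for 3 min over 48°C-58°C and pooled, NP-40 was added to 0.5% at 4°C, and soluble protein was recovered as the supernatant at 21,000xg for 90 min. Channel-sum-equalised TMTpro 16plex LC-MS/MS quantified this protein. Each value, from duplicates, is a log-two fold change in thermal stability relative to solvent controls.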

Protein sequences, listed by entry. Tags and fused reporters are not part of them. Lines headed by an entry give the natural chain unless they say otherwise; changes in a name come on top.
UniProt Q969N2: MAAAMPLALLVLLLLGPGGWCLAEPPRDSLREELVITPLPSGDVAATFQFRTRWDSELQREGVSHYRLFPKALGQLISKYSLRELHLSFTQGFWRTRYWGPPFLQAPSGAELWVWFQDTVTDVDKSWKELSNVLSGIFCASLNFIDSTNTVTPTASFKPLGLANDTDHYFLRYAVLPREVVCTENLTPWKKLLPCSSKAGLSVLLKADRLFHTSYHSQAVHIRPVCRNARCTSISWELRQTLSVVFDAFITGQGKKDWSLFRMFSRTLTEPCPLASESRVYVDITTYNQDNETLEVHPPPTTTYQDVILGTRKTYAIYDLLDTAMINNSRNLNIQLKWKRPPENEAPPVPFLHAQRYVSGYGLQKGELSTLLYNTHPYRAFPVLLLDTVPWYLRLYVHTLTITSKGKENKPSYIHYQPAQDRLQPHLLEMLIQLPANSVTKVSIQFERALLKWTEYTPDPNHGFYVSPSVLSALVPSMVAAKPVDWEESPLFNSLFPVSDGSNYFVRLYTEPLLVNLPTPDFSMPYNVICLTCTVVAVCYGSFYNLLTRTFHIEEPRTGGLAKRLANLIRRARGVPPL
UniProt P53609, whole entry, looked up: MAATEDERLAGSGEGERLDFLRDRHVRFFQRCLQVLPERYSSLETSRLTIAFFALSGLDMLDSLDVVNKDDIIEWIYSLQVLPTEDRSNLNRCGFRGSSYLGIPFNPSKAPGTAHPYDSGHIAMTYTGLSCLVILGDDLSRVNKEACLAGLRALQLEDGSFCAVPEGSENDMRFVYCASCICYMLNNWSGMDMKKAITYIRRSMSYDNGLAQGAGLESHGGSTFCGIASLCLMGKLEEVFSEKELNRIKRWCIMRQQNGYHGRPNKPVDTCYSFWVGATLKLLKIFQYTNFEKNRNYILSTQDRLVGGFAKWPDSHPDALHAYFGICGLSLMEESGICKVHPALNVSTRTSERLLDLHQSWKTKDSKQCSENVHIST
UniProt Q15149: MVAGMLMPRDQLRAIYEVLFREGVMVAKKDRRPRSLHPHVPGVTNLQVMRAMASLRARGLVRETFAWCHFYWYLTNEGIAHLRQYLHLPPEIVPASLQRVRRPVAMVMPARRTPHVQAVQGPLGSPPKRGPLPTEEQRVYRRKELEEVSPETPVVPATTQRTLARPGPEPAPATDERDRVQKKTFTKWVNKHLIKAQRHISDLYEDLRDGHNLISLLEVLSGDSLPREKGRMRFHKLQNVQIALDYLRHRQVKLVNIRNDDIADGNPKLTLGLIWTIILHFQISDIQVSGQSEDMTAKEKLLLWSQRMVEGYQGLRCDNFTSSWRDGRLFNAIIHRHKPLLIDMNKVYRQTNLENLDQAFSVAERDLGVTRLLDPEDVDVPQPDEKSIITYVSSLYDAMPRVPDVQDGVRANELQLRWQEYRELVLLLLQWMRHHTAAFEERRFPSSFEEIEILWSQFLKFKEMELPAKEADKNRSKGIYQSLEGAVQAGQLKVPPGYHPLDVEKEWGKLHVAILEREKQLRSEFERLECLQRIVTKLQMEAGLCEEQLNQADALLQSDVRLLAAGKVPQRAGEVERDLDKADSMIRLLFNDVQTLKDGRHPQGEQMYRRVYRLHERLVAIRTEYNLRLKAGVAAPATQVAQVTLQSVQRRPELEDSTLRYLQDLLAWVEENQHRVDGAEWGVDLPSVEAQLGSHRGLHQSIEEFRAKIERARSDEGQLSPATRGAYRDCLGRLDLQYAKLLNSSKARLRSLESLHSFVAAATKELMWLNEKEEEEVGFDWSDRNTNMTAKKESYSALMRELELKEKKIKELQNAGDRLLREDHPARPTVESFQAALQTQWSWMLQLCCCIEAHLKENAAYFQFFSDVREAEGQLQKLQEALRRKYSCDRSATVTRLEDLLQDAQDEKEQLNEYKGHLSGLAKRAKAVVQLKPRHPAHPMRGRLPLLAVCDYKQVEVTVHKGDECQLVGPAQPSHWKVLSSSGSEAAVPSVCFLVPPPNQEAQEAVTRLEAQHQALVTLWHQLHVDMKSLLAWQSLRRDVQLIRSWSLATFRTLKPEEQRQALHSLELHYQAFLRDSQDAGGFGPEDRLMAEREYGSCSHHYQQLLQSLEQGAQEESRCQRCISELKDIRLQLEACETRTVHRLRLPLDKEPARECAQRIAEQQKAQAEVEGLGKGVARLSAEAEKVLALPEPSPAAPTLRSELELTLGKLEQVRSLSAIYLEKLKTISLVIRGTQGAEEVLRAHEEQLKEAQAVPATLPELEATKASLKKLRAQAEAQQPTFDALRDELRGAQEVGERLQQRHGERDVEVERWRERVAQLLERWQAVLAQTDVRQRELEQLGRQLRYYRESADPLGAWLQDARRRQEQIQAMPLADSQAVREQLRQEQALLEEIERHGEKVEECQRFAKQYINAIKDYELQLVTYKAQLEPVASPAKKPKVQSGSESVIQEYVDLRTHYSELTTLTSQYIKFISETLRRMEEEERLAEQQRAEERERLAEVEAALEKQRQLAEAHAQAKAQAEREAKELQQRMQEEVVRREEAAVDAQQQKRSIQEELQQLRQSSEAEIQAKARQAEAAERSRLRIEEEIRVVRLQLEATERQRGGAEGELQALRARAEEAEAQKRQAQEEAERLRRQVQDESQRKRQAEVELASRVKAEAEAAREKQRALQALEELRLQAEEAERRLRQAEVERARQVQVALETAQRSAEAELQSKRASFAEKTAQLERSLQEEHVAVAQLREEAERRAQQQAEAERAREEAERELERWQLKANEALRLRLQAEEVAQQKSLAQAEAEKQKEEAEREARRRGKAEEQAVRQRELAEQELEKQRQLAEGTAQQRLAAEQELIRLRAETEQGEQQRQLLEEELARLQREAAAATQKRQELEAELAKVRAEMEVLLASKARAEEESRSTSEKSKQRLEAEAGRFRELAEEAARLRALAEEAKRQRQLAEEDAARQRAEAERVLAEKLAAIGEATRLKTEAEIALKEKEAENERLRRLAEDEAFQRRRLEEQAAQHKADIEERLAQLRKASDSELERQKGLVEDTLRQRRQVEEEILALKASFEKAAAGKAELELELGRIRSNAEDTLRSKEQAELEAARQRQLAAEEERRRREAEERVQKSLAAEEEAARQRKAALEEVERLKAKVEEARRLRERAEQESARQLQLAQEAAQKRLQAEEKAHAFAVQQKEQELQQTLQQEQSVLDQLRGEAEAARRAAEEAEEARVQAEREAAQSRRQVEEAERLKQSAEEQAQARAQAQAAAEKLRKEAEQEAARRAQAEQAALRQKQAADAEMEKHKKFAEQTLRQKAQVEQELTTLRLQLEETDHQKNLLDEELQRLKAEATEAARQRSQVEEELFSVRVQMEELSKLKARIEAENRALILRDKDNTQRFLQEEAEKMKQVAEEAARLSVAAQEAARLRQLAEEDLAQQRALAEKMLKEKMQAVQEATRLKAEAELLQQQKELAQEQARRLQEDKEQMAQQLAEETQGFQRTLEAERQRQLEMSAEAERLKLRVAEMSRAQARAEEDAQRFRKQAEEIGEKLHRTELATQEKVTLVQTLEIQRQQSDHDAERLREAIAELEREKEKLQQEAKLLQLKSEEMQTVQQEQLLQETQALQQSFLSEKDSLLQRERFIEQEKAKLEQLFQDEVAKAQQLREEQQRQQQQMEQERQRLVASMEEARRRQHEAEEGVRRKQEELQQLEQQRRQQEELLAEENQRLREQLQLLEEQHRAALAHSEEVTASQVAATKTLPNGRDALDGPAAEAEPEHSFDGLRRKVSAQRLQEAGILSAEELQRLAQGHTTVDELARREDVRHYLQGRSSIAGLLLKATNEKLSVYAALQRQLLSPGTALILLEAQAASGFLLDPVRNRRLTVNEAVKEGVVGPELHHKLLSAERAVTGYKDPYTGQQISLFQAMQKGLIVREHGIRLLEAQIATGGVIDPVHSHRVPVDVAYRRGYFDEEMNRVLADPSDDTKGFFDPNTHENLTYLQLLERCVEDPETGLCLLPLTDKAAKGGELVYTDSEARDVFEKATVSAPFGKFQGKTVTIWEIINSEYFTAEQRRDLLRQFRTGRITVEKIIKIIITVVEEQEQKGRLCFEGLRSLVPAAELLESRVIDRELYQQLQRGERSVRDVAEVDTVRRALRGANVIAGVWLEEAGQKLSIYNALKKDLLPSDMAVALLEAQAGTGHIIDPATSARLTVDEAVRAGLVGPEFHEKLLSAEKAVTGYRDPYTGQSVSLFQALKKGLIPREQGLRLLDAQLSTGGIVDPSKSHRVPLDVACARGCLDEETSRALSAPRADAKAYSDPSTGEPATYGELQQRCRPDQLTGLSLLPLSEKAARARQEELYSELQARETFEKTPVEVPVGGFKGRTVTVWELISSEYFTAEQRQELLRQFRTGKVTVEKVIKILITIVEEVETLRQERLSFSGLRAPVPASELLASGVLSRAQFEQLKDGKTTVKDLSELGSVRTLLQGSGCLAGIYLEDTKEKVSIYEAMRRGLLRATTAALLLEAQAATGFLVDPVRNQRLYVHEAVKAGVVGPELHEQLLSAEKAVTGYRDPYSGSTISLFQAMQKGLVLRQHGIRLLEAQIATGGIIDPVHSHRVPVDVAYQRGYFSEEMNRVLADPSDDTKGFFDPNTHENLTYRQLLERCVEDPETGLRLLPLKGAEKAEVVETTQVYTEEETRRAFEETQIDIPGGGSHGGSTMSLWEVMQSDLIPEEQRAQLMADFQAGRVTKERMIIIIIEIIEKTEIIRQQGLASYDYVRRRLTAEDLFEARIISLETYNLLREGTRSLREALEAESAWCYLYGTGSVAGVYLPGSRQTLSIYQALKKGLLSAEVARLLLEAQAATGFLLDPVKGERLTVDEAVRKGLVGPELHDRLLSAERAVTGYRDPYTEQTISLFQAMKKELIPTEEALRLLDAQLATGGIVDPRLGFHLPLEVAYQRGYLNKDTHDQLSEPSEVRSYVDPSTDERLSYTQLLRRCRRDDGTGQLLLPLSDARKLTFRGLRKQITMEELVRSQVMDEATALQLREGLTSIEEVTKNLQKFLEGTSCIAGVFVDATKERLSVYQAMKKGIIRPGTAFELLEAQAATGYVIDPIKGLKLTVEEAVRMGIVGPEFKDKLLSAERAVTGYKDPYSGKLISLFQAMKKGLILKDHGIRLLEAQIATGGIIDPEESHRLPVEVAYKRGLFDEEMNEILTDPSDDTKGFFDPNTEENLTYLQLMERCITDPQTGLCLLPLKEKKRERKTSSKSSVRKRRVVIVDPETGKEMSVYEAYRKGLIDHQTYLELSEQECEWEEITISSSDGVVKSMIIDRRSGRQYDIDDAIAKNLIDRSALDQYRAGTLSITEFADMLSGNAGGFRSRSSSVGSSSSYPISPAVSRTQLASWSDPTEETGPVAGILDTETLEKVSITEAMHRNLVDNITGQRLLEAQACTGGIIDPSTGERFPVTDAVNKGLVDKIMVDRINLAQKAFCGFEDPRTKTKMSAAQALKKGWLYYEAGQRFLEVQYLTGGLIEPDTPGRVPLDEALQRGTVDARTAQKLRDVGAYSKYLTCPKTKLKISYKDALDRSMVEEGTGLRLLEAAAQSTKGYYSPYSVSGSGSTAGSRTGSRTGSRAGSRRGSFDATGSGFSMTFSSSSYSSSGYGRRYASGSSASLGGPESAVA
UniProt Q9NRX4: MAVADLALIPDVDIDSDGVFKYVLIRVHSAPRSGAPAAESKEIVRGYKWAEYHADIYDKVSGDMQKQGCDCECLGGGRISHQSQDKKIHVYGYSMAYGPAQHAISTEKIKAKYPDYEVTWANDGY
UniProt Q7RTV0, whole entry, looked up: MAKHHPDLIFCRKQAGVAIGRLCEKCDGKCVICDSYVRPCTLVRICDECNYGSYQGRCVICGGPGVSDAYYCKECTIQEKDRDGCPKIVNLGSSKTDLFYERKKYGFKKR
UniProt Q96BD5: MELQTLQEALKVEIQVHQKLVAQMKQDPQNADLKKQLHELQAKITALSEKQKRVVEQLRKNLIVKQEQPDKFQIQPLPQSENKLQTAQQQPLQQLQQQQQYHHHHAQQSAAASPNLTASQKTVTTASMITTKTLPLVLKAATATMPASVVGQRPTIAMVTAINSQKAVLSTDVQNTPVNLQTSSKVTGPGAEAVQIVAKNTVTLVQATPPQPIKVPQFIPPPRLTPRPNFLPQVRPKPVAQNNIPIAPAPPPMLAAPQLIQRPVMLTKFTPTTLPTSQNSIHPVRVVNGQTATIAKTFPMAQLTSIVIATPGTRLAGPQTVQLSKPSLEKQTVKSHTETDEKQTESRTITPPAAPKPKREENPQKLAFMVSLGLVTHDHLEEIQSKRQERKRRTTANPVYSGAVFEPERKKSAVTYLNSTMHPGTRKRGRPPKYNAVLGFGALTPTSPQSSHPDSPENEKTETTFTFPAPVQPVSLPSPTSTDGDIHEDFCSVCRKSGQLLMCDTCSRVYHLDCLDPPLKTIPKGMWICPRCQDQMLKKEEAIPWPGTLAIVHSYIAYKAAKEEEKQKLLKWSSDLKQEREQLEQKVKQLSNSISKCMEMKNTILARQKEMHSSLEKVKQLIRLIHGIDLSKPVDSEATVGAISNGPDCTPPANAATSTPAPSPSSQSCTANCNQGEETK

[2] = compound: Cc1nc(Nc2n[nH]c3c2CN(C(=O)N[C@H](CN(C)C)c2ccccc2)C3(C)C)c2sccc2n1
Method in brief: as §1

[3] = compound: Cc1nc(Nc2ncc(C(=O)Nc3c(C)cccc3Cl)s2)cc(N2CCN(CCO)CC2)n1 [dasatinib]
Method in brief: as §1

[4] = compound: Cc1ncc(-c2ccnc(Nc3ccc(S(C)(=O)=O)cc3)n2)n1C(C)C
Method in brief: as §1

[5] = compound: Cn1cc(-c2ccc3c(c2)CCN3C(=O)Cc2cccc(C(F)(F)F)c2)c2c(N)ncnc21
Method in brief: as §1

[6] = compound: Cn1cc(CNCC2CCN(c3ncc(C(=O)NO)cn3)CC2)c2ccccc21 [quisinostat]
Method in brief: as §1

[7] = compound: Cn1cncc1[C@@](N)(c1ccc(Cl)cc1)c1ccc2c(c1)c(-c1cccc(Cl)c1)cc(=O)n2C [tipifarnib]
Method in brief: as §1

[8] = compound: NC(=O)Nc1cc(-c2cccc(F)c2)sc1C(=O)N[C@H]1CCCNC1
Method in brief: as §1

[9] = compound: NC(=O)c1cnc(N[C@@H]2CCCC[C@@H]2N)nc1Nc1cccc(-n2nccn2)c1
Method in brief: as §1

[10] = compound: NC1(c2ccc(-c3nc4ccn5c(=O)[nH]nc5c4cc3-c3ccccc3)cc2)CCC1
Method in brief: as §1

[11] = compound: NCC(=O)Nc1ccc(-n2nc(C(F)(F)F)cc2-c2ccc3c(ccc4ccccc43)c2)cc1
Method in brief: as §1

[12] = compound: O=C(CCCCCCC(=O)Nc1ccccc1)NO [vorinostat]
Method in brief: as §1

[13] = compound: O=C(O)c1ccc2c(c1)nc(Nc1cccc(Cl)c1)c1ccncc12 [silmitasertib]
Method in brief: as §1

[14] = compound: O=C1NC(=O)C(c2cnc3ccccn23)=C1c1cn2c3c(cc(F)cc13)CN(C(=O)N1CCCCC1)CC2
Method in brief: as §1

[15] = compound: c1cn2cc(-c3ccc4cn[nH]c4c3)nc(Nc3ccc(N4CCOCC4)cc3)c2n1 [entospletinib]
Method in brief: as §1

Measured: log2 fold change

PIGT (UniProt Q969N2)
inactive: [1] 0.003 | [2] -0.026 | [3] -0.079 | [4] -0.03 | [5] 0.014 | [6] -0.002 | [7] -0.031 | [8] 0.021 | [9] 0.055 | [10] -0.039 | [11] -0.013 | [12] 0.135 | [13] 0.044 | [14] -0.044 | [15] 0.008

PGGT1B (UniProt P53609)
inactive: [1] 0.01 | [2] -0.005 | [3] 0.005 | [4] -0.03 | [5] 0.048 | [6] 0.066 | [7] 0.208 | [8] 0.018 | [9] -0.037 | [10] 0.047 | [11] -0.038 | [12] 0.08 | [13] 0.109 | [14] -0.029 | [15] -0.054

PHF3 (UniProt Q92576)
inactive: [1] -0.052 | [2] 0.012 | [3] -0.014 | [4] 0.022 | [5] 0.002 | [6] -0.13 | [7] -0.03 | [8] 0.023 | [9] 0.004 | [10] 0.023 | [11] 0.027 | [12] 0.015 | [13] -0.01 | [14] 0.012 | [15] -0.041

PLCG1 isoform 2 (UniProt P19174)
inactive: [1] -0.04 | [2] -0.016 | [3] -0.046 | [4] -0.01 | [5] 0.009 | [6] -0.024 | [7] 0 | [8] 0.017 | [9] 0.034 | [10] -0.007 | [11] -0.016 | [12] -0.246 | [13] 0.085 | [14] 0.006 | [15] -0.019

PICALM (UniProt H0YEH1)
inactive: [1] -0.023 | [2] -0.012 | [3] -0.039 | [4] -0.007 | [5] -0.005 | [6] -0.095 | [7] 0.019 | [8] 0.166 | [9] -0.021 | [10] -0.042 | [11] -0.048 | [12] 0.037 | [13] -0.045 | [14] -0.075 | [15] -0.237

PLEC (UniProt Q15149)
inactive: [1] -0.011 | [2] -0.016 | [3] 0.136 | [4] -0.003 | [5] -0.026 | [6] -0.026 | [7] -0.03 | [8] 0.019 | [9] 0.009 | [10] -0.004 | [11] 0.018 | [12] -0.113 | [13] 0.019 | [14] -0.02 | [15] 0

PHACTR4 isoform 2 (UniProt Q8IZ21)
inactive: [1] 0.005 | [2] -0.004 | [3] 0.022 | [4] -0.016 | [5] 0.012 | [6] -0.017 | [7] -0.015 | [8] -0.006 | [9] -0.002 | [10] -0.027 | [11] 0.025 | [12] 0.014 | [13] 0.01 | [14] 0.009 | [15] -0.024

PLEKHF1 (UniProt Q96S99)
active: [12] -0.272
inactive: [1] -0.03 | [2] -0.028 | [3] -0.016 | [4] 0.012 | [5] -0.027 | [6] -0.009 | [7] -0.012 | [8] 0.021 | [9] -0.002 | [10] -0.023 | [11] -0.019 | [13] 0.07 | [14] -0.014 | [15] 0.014

PHPT1 (UniProt Q9NRX4)
inactive: [1] 0.004 | [2] -0.027 | [3] 0.03 | [4] 0.025 | [5] 0.007 | [6] 0.014 | [7] 0.056 | [8] -0.01 | [9] -0.02 | [10] 0.073 | [11] -0.014 | [12] 0.073 | [13] 0.02 | [14] -0.028 | [15] 0

PIGO (UniProt Q8TEQ8)
inactive: [1] -0.019 | [2] 0.055 | [3] -0.032 | [4] -0.19 | [5] 0.079 | [6] -0.119 | [7] 0.013 | [8] 0.301 | [9] 0.059 | [10] 0.041 | [11] -0.156 | [12] 0.15 | [13] 0.18 | [14] 0.121 | [15] -0.015

PHF5A (UniProt Q7RTV0)
inactive: [1] 0.012 | [2] 0.007 | [3] 0.031 | [4] 0.04 | [5] 0.026 | [6] 0.165 | [7] 0.05 | [8] -0.023 | [9] -0.017 | [10] 0.031 | [11] -0.015 | [12] 0.087 | [13] 0 | [14] 0.072 | [15] 0.03

PHRF1 (UniProt Q9P1Y6)
inactive: [1] 0.071 | [2] -0.018 | [3] 0.048 | [4] -0.07 | [5] -0.028 | [6] 0.06 | [7] 0.015 | [8] -0.071 | [9] 0.082 | [10] -0.047 | [11] 0.082 | [12] -0.068 | [13] -0.194 | [14] 0.072 | [15] -0.025

PLBD2 (UniProt Q8NHP8)
inactive: [1] 0.016 | [2] -0.041 | [3] 0.023 | [4] -0.134 | [5] -0.002 | [6] -0.057 | [7] 0.004 | [8] -0.002 | [9] 0.011 | [10] -0.016 | [11] 0.014 | [12] 0.132 | [13] -0.008 | [14] -0.048 | [15] -0.084

PLD1 (UniProt Q13393)
inactive: [1] 0.018 | [2] 0.02 | [3] 0.014 | [4] -0.004 | [5] 0.007 | [6] -0.006 | [7] -0.057 | [8] 0.015 | [9] 0.038 | [10] -0.033 | [11] -0.013 | [12] -0.005 | [13] 0.021 | [14] 0.035 | [15] -0.04

PHF21A isoform 3 (UniProt Q96BD5)
inactive: [1] -0.018 | [2] 0.232 | [3] 0.182 | [4] 0.03 | [5] -0.111 | [6] -0.173 | [7] -0.144 | [8] 0.14 | [9] 0.011 | [10] 0.013 | [11] 0.002 | [12] -0.202 | [13] -0.037 | [14] -0.071 | [15] 0.023

PGRMC2 isoform 2 (UniProt O15173)
inactive: [1] 0.038 | [2] -0.025 | [3] 0.019 | [4] -0.045 | [5] 0.009 | [6] -0.012 | [7] 0.003 | [8] -0.021 | [9] 0.022 | [10] 0.047 | [11] -0.023 | [12] 0.015 | [13] -0.028 | [14] 0.01 | [15] 0.009

PHKA1 (UniProt P46020)
active: [8] 0.272 | [12] -0.223
inactive: [1] -0.059 | [2] 0.14 | [3] -0.138 | [4] -0.007 | [5] 0.029 | [6] -0.072 | [7] -0.021 | [9] 0.091 | [10] -0.053 | [11] 0.002 | [13] 0.184 | [14] -0.001 | [15] -0.01

PIK3C2A (UniProt O00443)
inactive: [1] 0.091 | [2] -0.029 | [3] 0.004 | [4] -0.065 | [5] 0.022 | [6] -0.056 | [7] -0.103 | [8] 0.077 | [9] 0.006 | [10] -0.028 | [12] 0.046 | [13] -0.085 | [14] 0.031 | [15] 0.055

2 records drawn at random from those above, as already listed:
PHKA1 (UniProt P46020)
active: [8] 0.272 | [12] -0.223
inactive: [1] -0.059 | [2] 0.14 | [3] -0.138 | [4] -0.007 | [5] 0.029 | [6] -0.072 | [7] -0.021 | [9] 0.091 | [10] -0.053 | [11] 0.002 | [13] 0.184 | [14] -0.001 | [15] -0.01

PIK3C2A (UniProt O00443)
inactive: [1] 0.091 | [2] -0.029 | [3] 0.004 | [4] -0.065 | [5] 0.022 | [6] -0.056 | [7] -0.103 | [8] 0.077 | [9] 0.006 | [10] -0.028 | [12] 0.046 | [13] -0.085 | [14] 0.031 | [15] 0.055

Following part:

PHACTR2 isoform 4 (UniProt O75167)
inactive: [1] 0.032 | [2] -0.027 | [3] 0.044 | [4] 0.068 | [5] -0.014 | [6] -0.072 | [7] -0.01 | [8] -0.004 | [9] -0.067 | [10] -0.063 | [12] 0.018 | [13] 0.083 | [14] -0.035 | [15] -0.227

PLEKHA5 isoform 6 (UniProt Q9HAU0)
inactive: [1] -0.052 | [2] 0.032 | [3] 0.006 | [4] -0.005 | [5] 0.021 | [6] -0.011 | [7] 0.009 | [8] 0.011 | [9] -0.008 | [10] -0.003 | [11] -0.029 | [13] -0.003 | [14] -0.016 | [15] 0.022
active: [12] -0.305

PIP5K1A (UniProt Q99755)
inactive: [1] -0.091 | [2] 0.011 | [3] -0.137 | [4] -0.082 | [5] 0.033 | [6] -0.165 | [7] 0.032 | [8] 0.034 | [9] -0.041 | [10] 0.01 | [12] -0.014 | [13] -0.033 | [14] 0.047

— the supplement of paper PMC10849652
